# From article PMC7658717
# Sequences of proteins named here, by UniProt entry; tags and fusion partners are left off.
# UniProt P47811: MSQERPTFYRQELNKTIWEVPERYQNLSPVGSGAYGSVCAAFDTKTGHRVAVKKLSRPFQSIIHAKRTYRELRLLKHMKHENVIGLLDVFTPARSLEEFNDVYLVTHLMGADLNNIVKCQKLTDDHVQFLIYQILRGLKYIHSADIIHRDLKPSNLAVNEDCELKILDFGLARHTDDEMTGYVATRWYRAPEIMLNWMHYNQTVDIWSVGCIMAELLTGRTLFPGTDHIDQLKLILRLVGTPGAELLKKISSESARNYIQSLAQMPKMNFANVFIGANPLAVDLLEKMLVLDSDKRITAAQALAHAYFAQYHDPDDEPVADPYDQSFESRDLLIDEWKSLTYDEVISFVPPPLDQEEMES
# These are yes or no findings as the source states them, for the method shown. Binding seen in cells or lysates may run through a third protein. Some binding calls cover weakened binding; strength is not graded here. Tags and fused reporters may be left off the sequences shown.
# Molecular target: T1, megakaryocytic leukemia 1, Flag-tagged (pcDNA3.1-C3Flag-MKL1) (UniProt Q8K4J6)
# T1 sequence: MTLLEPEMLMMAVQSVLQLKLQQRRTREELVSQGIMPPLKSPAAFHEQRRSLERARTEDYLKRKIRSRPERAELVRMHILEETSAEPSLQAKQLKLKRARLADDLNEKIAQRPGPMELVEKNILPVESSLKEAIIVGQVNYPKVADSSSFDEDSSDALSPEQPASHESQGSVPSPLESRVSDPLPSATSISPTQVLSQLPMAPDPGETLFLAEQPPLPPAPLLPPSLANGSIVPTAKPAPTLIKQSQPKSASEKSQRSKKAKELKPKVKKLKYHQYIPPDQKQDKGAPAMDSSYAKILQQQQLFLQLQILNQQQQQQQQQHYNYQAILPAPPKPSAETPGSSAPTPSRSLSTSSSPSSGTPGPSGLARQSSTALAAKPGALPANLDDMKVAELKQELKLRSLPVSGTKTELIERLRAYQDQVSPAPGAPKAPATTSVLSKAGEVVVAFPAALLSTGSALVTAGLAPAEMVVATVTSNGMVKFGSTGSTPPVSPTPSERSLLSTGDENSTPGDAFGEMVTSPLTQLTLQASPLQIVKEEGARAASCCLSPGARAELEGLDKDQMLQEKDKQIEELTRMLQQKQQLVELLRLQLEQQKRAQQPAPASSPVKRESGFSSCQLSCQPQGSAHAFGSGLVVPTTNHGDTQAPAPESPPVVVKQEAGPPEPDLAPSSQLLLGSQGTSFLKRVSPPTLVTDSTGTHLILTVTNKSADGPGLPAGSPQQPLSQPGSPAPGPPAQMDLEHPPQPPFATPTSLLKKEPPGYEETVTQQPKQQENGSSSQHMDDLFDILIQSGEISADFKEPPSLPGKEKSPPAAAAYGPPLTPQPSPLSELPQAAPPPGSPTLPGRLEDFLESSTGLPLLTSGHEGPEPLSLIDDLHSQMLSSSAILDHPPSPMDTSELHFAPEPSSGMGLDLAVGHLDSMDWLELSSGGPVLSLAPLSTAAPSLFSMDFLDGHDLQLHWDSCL
# Test: co-IP; 293T cells co-transfected with His-p38α and/or Flag-MKL1 plasmids for 48 h; whole cell lysates; Flag-bead pulldown (Immunoprecipitation Kit, Proteintech); western blot
substance,measurement,value
"p38α mitogen-activated protein kinase, His-tagged (pcDNA3.1-V5/hisB-p38α) (from UniProt P47811 1-360) (enzyme)",binding,binds
